This note sets out measurements from publication doi:10.1101/2020.08.12.247809.

Protein sequences, listed by entry. Tags and fused reporters are not part of them. Residues count along the entry.
UniProt Q68FF0, residues 144-261: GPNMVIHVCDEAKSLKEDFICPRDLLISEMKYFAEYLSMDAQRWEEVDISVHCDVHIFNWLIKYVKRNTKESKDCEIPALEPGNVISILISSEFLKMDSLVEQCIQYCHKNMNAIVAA

This test addresses T1, GST-SMRT(1383-1467) (mouse) (UniProt Q9WU42).
T1 sequence: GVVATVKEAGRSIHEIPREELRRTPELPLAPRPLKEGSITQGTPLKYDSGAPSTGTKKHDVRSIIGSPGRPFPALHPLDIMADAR
The experiment in a line: pull-down.

No constants are given. Whether binding was seen depends on the method and setting. Some results given as binding are weak or reduced against the parent protein; the word gives no strength. Sequences can lack the tags named with a protein.

With “His6-KIAA1841(BTB) (from UniProt Q68FF0-1 144-261) (domain or fragment)”, the binding entry was “binds”.
